Results are given in words; binding and its absence hold for the method and conditions named. Binding seen in cells or lysates may run through a third protein. Some entries that bind do so weakly or less than the wild type.
Molecular target: PPARγ-S273A (UniProt P37238)
Assay: co-IP; whole-cell extracts of transgenic 4T1 cells, antibodies overnight, protein A/G beads 2 h, five washes with low-salt lysis buffer, immunoblot; forward and reverse

- binding: binds
B1: epithelial splicing regulatory protein 1 (ESRP1) (protein, UniProt Q3US41 1-680)
chain: MTASPDYLVVLFGITAGATGAKLGSDEKELILLLWKVVDLANKKVGQLHEVLVRPDQLELTEDCKEETKIDAENLSSAPQLDQALRQFNQSVSNELNIGVGTSFCLCTDGQLHIRQILHPEASKKNVLLPECFYSFFDLRKEFKKCCPGSPDIDKLDVAAMTESLNFEKSDSVSRYGASQVEDMGNIILAMISEPYNHRFSDPERVNYKFESGTCKMELIDDSTVVRARGLPWQSSDQDIARFFKGLNIAKGGAALCLNAQGRRNGEALVRFVSEEHRDLALQRHKHHMGTRYIEVYKATGEDFLKIAGGTSNEVAQFLSKENQVIVRMRGLPFTATAEEVVAFFGQHCPITGGKEGILFVTYPDGRPTGDAFVLFACEEYAQNALRKHKELLGKRYIELFRSTAAEVQQVLNRFSSAPLIPLPTPPIIPVLPQQFVPPTNVRDCIRLRGLPYAATIEDILDFLGEFSTDIRTHGVHMVLNHQGRPSGDAFIQMKSTDRAFMAAQKYHKKTMKDRYVEVFQCSAEEMNFVLMGGTLNRNGLSPPPCKLPCLSPPSYTFPAPTAVIPTEAAIYQPSLLLNPRALQPSTAYYPAGTQLFMNYTAYYPSPPGSPNSLGYFPTAANLSSVPPQPGTVVRMQGLAYNTGVKEILNFFQGYQYATEDGLVHTNDQARTLPKEWVCI

From article PMC7675186
